Test results reported in publication PMC9007350, “Aurintricarboxylic acid is a canonical disruptor of the TAZ-TEAD transcriptional complex” (PLoS ONE, 2022).
Further values from the same series stand in other lists.

Tested on: TC/TEAD transcriptional profile in TC-expressing NIH3T3 cells
Test: Bulk RNA-Seq, differential gene expression and GSEA (TC ATA v. TC DMSO)
Format: cell-based, murine
Conditions: TC ATA v. TC DMSO
Procedure: NIH3T3 and HEK293 cells were obtained from the American Type Tissue Collection (ATCC, Manassas, VA) and cultured in DMEM containing 10% fetal bovine serum and penicillin/streptomycin. A TEAD dual luciferase reporter assay was performed as previously described. Cells were treated with vehicle control or ATA (10 μM) for 48 h before measuring the luciferase activity or processing the samples for RNA extraction. Each experiment was repeated at least 2-3 times. NIH3T3 cells were used. The extracted RNA (RNeasy Mini, Qiagen) from treated cells was either used for qPCR measurements or sent for bulk RNA-Seq. Sequencing runs were performed on an Illumina HiSeq 4000 sequencer (Genewiz). Subsequent bioinformatics analysis was performed in the Galaxy Project platform. Paired end reads were aligned to the murine genome ([…]2 [27]. Raw count files were generated with featureCounts using a corresponding GTF reference. Differential gene expression analysis was performed with DESeq2 [29]. Transcripts were considered to be differentially expressed if the false discovery rate < 0.05 and Log2FC > 2. When performing differential gene expression for GSEA analysis, the Limma package was used (<5 CPM filtering) with t-scores used for rank statistics. GSEA plots and statistics were generated with FGSEA with custom gene sets. Raw sequencing reads and processed files have been deposited in the GEO repository (data will be uploaded upon manuscript acceptance). The Universal Probe Library probes (Roche) and the associated primer sequences for the qPCR targets are listed below: […]

`O=C(O)C1=CC(=C(c2ccc(O)c(C(=O)O)c2)c2ccc(O)c(C(=O)O)c2)C=CC1=O` [ATA, aurintricarboxylic acid] was tested, and the “Log2 Fold Change” value (gene Sash1) was 0.4374, the “Log2 Fold Change” value (gene Sbno2) was -0.2738 and the “Log2 Fold Change” value (gene Scn1b) was 0.5322. For the same compound, the “Log2 Fold Change” value (gene Scx) was -1.24, the “Log2 Fold Change” value (gene Sec16b) was 0.691 and the “Log2 Fold Change” value (gene Selenoh) was -0.6572. For the same compound, the “Log2 Fold Change” value (gene Selenot) was -0.2262, the “Log2 Fold Change” value (gene Sema3f) was 0.2183 and the “Log2 Fold Change” value (gene Sema4b) was -0.4334. For the same compound, the “Log2 Fold Change” value (gene Sema5a) was -0.3616, the “Log2 Fold Change” value (gene Serpinb1a) was 0.9856 and the “Log2 Fold Change” value (gene Serpinb8) was 0.6539. For the same compound, the “Log2 Fold Change” value (gene Serpine1) was -0.3094, the “Log2 Fold Change” value (gene Serpinf1) was 0.245 and the “Log2 Fold Change” value (gene Serping1) was 0.7616. The “Log2 Fold Change” value (gene Shmt1) was -0.2221, the “Log2 Fold Change” value (gene Sipa1) was -0.284 and the “Log2 Fold Change” value (gene Sipa1l2) was 0.2601. The “Log2 Fold Change” value (gene Slc1a3) was 0.855, the “Log2 Fold Change” value (gene Slc16a3) was 0.4856 and the “Log2 Fold Change” value (gene Slc22a23) was 0.3295. For the same compound, the “Log2 Fold Change” value (gene Slc23a2) was 0.2819, the “Log2 Fold Change” value (gene Slc25a16) was 0.303 and the “Log2 Fold Change” value (gene Slc27a1) was 0.4471. For the same compound, the “Log2 Fold Change” value (gene Slc40a1) was 0.5566, the “Log2 Fold Change” value (gene Slc41a1) was -0.3149 and the “Log2 Fold Change” value (gene Smad6) was 0.7047. The “Log2 Fold Change” value (gene Smad9) was 1.326, the “Log2 Fold Change” value (gene Smchd1) was -0.2003 and the “Log2 Fold Change” value (gene Smim14) was 0.4189. For the same compound, the “Log2 Fold Change” value (gene Smoc1) was 1.192, the “Log2 Fold Change” value (gene Smtn) was -0.3608 and the “Log2 Fold Change” value (gene Smurf2) was -0.2527. The “Log2 Fold Change” value (gene Snai1) was 0.395, the “Log2 Fold Change” value (gene Snta1) was 0.9332 and the “Log2 Fold Change” value (gene Sod3) was 0.8371. The “Log2 Fold Change” value (gene Sorcs2) was -0.6842, the “Log2 Fold Change” value (gene Sord) was 0.2806 and the “Log2 Fold Change” value (gene Sox9) was -0.5093. For the same compound, the “Log2 Fold Change” value (gene Sp100) was 0.4955, the “Log2 Fold Change” value (gene Sparcl1) was 0.6451 and the “Log2 Fold Change” value (gene Spire1) was -0.3218. The “Log2 Fold Change” value (gene Spout1) was -0.2134, the “Log2 Fold Change” value (gene Src) was -0.3248 and the “Log2 Fold Change” value (gene Srl) was 0.3631. The “Log2 Fold Change” value (gene Srsf1) was -0.1632, the “Log2 Fold Change” value (gene Ssc5d) was 0.5291 and the “Log2 Fold Change” value (gene Sspn) was 0.3567. The “Log2 Fold Change” value (gene St3gal5) was 0.3007, the “Log2 Fold Change” value (gene Stambpl1) was -0.2204 and the “Log2 Fold Change” value (gene Stat3) was 0.52. For the same compound, the “Log2 Fold Change” value (gene Stat5a) was 0.5005, the “Log2 Fold Change” value (gene Stra6) was -1.42 and the “Log2 Fold Change” value (gene Styk1) was 0.3717. The “Log2 Fold Change” value (gene Suv39h1) was -0.2075, the “Log2 Fold Change” value (gene Syt13) was -1.0829 and the “Log2 Fold Change” value (gene Tapbp) was 0.4064. The “Log2 Fold Change” value (gene Tars) was -0.2595, the “Log2 Fold Change” value (gene Tbrg4) was -0.213 and the “Log2 Fold Change” value (gene Tceal9) was 0.2274. For the same compound, the “Log2 Fold Change” value (gene Tcof1) was -0.2054, the “Log2 Fold Change” value (gene Tgfb2) was 0.4696 and the “Log2 Fold Change” value (gene Thbs1) was 1.182. The “Log2 Fold Change” value (gene Thbs2) was 0.8061, the “Log2 Fold Change” value (gene Thbs4) was 1.132 and the “Log2 Fold Change” value (gene Them6) was 0.6526. The “Log2 Fold Change” value (gene Thy1) was 0.2337, the “Log2 Fold Change” value (gene Timp3) was 0.6248 and the “Log2 Fold Change” value (gene Timp4) was 1.073. The “Log2 Fold Change” value (gene Tm7sf3) was 0.2578, the “Log2 Fold Change” value (gene Tmcc3) was -0.6032 and the “Log2 Fold Change” value (gene Tmem44) was 0.8313. The “Log2 Fold Change” value (gene Tmem45a) was 0.6358, the “Log2 Fold Change” value (gene Tmem59) was 0.233 and the “Log2 Fold Change” value (gene Tmem106b) was 0.4399. For the same compound, the “Log2 Fold Change” value (gene Tmem123) was 0.2229, the “Log2 Fold Change” value (gene Tmem158) was 0.419 and the “Log2 Fold Change” value (gene Tmem179) was -0.7208. The “Log2 Fold Change” value (gene Tnnc1) was 0.9845, the “Log2 Fold Change” value (gene Tnr) was 1.261 and the “Log2 Fold Change” value (gene Tnrc18) was 0.3176. For the same compound, the “Log2 Fold Change” value (gene Tns1) was 0.3282, the “Log2 Fold Change” value (gene Tppp) was 1.04 and the “Log2 Fold Change” value (gene Traf5) was 0.5172. The “Log2 Fold Change” value (gene Trafd1) was 0.3731, the “Log2 Fold Change” value (gene Trim8) was -0.1948 and the “Log2 Fold Change” value (gene Trmt1) was -0.224. The “Log2 Fold Change” value (gene Trp53inp1) was 0.6461, the “Log2 Fold Change” value (gene Tspan3) was 0.1875 and the “Log2 Fold Change” value (gene Ttyh3) was 0.3329. For the same compound, the “Log2 Fold Change” value (gene Tubb3) was -0.6269, the “Log2 Fold Change” value (gene Twnk) was -0.3138 and the “Log2 Fold Change” value (gene Txlnb) was 0.4916. The “Log2 Fold Change” value (gene Txnip) was 0.7687, the “Log2 Fold Change” value (gene Uck2) was -0.1684 and the “Log2 Fold Change” value (gene Usp20) was 0.3539. For the same compound, the “Log2 Fold Change” value (gene Utp20) was -0.2668, the “Log2 Fold Change” value (gene Vars) was -0.2196 and the “Log2 Fold Change” value (gene Vasn) was 0.2551. For the same compound, the “Log2 Fold Change” value (gene Wincr1) was -0.6443, the “Log2 Fold Change” value (gene Wls) was 0.2525 and the “Log2 Fold Change” value (gene Xbp1) was 0.2279. The “Log2 Fold Change” value (gene Xist) was -0.9006, the “Log2 Fold Change” value (gene Zbtb4) was 0.3372 and the “Log2 Fold Change” value (gene Zbtb12) was -0.239. The “Log2 Fold Change” value (gene Zfand5) was 0.185, the “Log2 Fold Change” value (gene Zfp52) was -0.3705 and the “Log2 Fold Change” value (gene Zfp65) was 0.3915. The “Log2 Fold Change” value (gene Zfp747) was -0.457, the “Log2 Fold Change” value (gene Zfyve1) was 0.2502 and the “Log2 Fold Change” value (gene Zhx1) was 0.2955. The “Log2 Fold Change” value (gene mt-Rnr2) was 0.4083.
